Measured values: US12702712B2, “Enteroendocrine cell-targeting polymer substance conjugated with photosensitizer, and medical use thereof for ameliorating metabolic disease” (The Catholic University of Korea Industry-Academic …, priority 2020, dated 2026)
Some of these results come from one statement about several compounds together.

System: canine kidney cells (MDCK)
Assay: Cytotoxicity and phototoxicity, MTT test
Conditions: laser 671 nm, 2 J/cm^2, concentration based on chlorin e6

Row | Substance | treatment concentration at which cell viability was remarkably reduced, light irradiation group [µg/mL]
1 | oleic acid-polyethylene glycol-chlorin e6 [OA-PEG-Ce6] | ≥ 2.5
2 | polyethylene glycol-chlorin e6 [reference compound] | ≥ 2.5
